From paper PMC10332018 come the findings set out here.

Protein sequences, listed by entry. Tags and fused reporters are not part of them. Lines headed by an entry give the natural chain unless they say otherwise; changes in a name come on top. Residues count along the entry.
UniProt P23443, residues 24-525: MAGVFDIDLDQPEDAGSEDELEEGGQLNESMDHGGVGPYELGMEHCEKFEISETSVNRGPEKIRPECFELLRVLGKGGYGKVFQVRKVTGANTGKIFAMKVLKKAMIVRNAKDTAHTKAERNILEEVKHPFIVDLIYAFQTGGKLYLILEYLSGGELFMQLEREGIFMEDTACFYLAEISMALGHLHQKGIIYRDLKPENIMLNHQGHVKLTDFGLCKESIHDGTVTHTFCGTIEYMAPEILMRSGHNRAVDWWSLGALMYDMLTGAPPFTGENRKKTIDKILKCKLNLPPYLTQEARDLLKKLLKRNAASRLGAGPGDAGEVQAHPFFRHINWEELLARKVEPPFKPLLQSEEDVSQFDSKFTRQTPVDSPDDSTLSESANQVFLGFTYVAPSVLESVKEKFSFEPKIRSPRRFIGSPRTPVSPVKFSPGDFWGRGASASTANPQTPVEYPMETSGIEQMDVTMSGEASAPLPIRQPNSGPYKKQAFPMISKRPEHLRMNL
UniProt P67775: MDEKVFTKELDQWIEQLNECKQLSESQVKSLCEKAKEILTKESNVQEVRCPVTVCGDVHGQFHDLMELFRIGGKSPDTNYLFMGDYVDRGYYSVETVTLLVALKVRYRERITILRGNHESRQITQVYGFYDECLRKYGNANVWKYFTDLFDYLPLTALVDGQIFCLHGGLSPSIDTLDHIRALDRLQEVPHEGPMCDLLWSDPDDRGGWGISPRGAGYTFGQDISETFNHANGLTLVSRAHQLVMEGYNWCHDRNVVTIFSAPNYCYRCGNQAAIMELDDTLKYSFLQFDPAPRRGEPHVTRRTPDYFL

Assay [1] addresses Flag-p70S6K (UniProt P23443). The assay is described as follows: co-IP; lysates of HEK293 cells transfected with Flag-p70S6K only, immunoprecipitated by anti-FLAG-Sepharose; endogenous partners detected by Western blot. On the technique in general: In western blotting, separated proteins are transferred to a membrane and probed.
Assay [2] has as its target Flag-p70S6K (UniProt P23443). In words: co-IP; lysates of HEK293 cells co-transfected with 4HA-B56γ3 and Flag-p70S6K, immunoprecipitated by anti-FLAG-Sepharose; Western blot; isotonic IP buffer.

Results are given in words; binding and its absence hold for the method and conditions named. In cells and extracts the contact can be indirect. A result given as binding can be weak or reduced; the word gives no strength.

With “endogenous PP2A C subunit (from UniProt P67775) (enzyme)”, the binding entry with Flag-p70S6K [1] and with Flag-p70S6K [2] was “binds” in each case.
